# Measurements published in patent US20230322933A1, “MODEL FOR PREDICTION OF TOLERABILITY ISSUES IN CONNECTION WITH INTRAVENOUS ADMINISTRATION OF THERAPEUTIC ANTIBODIES” (BIOINVENT INTERNATIONAL AB, priority 2020, published 2023).
# “Also recorded” adds a separate entry of the source. At least one structure is not confirmed: it was looked up by name or label, or the drawing left a doubt.
# Legend:
# [1] = system: wildtype C57/BL6 mice; assay: Macroscopic IRRs (scoring 0-2) in mice after injection of surrogate antibody, with or without premedication or split-dosing; type: in vivo, mouse; conditions: for effect of premedication with two doses of corticosteroids: s.c. 16-24 hours and i.v. 30-60 minutes prior to antibody administration
# Description: Six to eight weeks-old (17-20 g) female C57/BL6 and Balb C mice were obtained from Taconic or Janvier. Mice were injected i.v with mouse anti-CD32B AT-130-2 IgG2a either as a bulk dose of 200 ug/mouse or as a split-dose with 8 ug/mouse followed by 200 ug/mouse.
# For the corticosteroid treatment, Betapred (betamethasone, VNR: 008938, Alfasigma S.P.A.) was used at 10 mg/kg which is a suboptimal dose in these mouse models.
# Split-dosing was initiated 24 h post corticosteroid treatment with 8 ug/mouse of mouse anti-CD32B AT-130-2 IgG2a i.v. followed by a bulk-dose of 200 ug/mouse 20-40 minutes later. In parallel mice were injected with only the bulk-dose.
# Mice were monitored post injection with regards to changes in behavior and macroscopic symptoms such as isolation, mobility, and fur condition. Macroscopic IRRs scoring system of 0-2 was set up based on the observations.
# Other premedications evaluated were anti-PAF (CV3988, sc-201015, Santa Cruz 20 mg/kg), anti-IL6 (clone 15A7, BE0047, Bioxcell, 10 mg/kg), anti-histamine (Zantac, VNR: 077875, GlaxoSmithKline AB, 5 mg/kg) or a leukotriene-antagonist (131064, Apoex, 4 mg/kg). These premedications were given i.p 1 h prior to injection i.v of mouse anti-CD32B AT-130-2 IgG2a as a bulk dose of 200 ug/mouse.
# Six to eight weeks-old (17-20 g) female C57/BL6 mice were obtained from Taconic. Mice were injected either intra-venous (i.v.), […] (i.p.) or sub-cutaneous (s.c.) with mouse anti-CD32B AT-130-2 IgG2a in doses ranging from 1 μg-400 μg/mouse.
# For the corticosteroid treatment, Betapred (betamethasone, VNR: 008938, Alfasigma S.P.A.) or Dexamethasone (Cat. No: S1322, batch no: 02, Selleckchem) was used. For the anti-histamine treatment Zyrlex (10 mg/ml, VNR: 523084, MACURE PHARMA ApS), Zantac (25 mg/ml, VNR: 077875, GlaxoSmithKline AB) or Aeurius (0.5 mg/ml, VNR: 097288, Merck Sharp & Dohme BV) was used.
# Mice were monitored post injection with regard to changes in behavior and macroscopic symptoms such as isolation, mobility, and fur condition. Macroscopic IRRs scoring system of 0-2 was set up based on the observations: […]
# For the corticosteroid treatment, Betapred (betamethasone, VNR: 008938, Alfasigma S.P.A.) or Dexamethasone (Cat. No: S1322, Batch No: 02, Selleckchem) was used.
# [2] = system: wildtype C57/BL6 mice; assay: Platelet counts in fresh mouse blood (Vetscan) after antibody injection; type: in vivo
# Description: Blood samples were collected from vena saphena 20 min post injection of bulk dose of anti-CD32B for instant blood count analysis. For liver enzyme and cytokine analysis, the mice were bled from the aorta under isoflurane anesthesia just prior to sacrifice. Samples for liver enzymes and cytokines were collected 1 h and respectively 3 h after bulk dose.
# Platelet counts were analyzed in fresh blood using a Vetscan (Vetscan HM5 Abaxis, Triolab).
# Blood samples were collected from vena saphena for instant blood count analysis. For serum concentrations of AT130-2, liver enzyme and cytokine analysis, the mice were bled from the aorta under isoflurane anesthesia just prior to sacrifice.
# Blood samples were collected from vena saphena for instant blood count analysis.
# [3] = system: wildtype C57/BL6 mice; assay: Transaminases (AST, ALT) in mouse serum after antibody injection; type: in vivo; conditions: 40 mg/kg 24 h (16-24 h) and 1 h pre i.v. injection of 10 mg/kg AT-130-2 IgG2a
# [4] = system: human subjects with non-hodgkins B-cell lymphoma; assay: Infusion related reactions (IRR grading) in clinical studies with BI-1206; conditions: subjects 501-001 and 503-002, 70 mg BI-1206
# [5] = 10 mg/kg 24 h and 1 h pre i.v. injection of 10 mg/kg AT-130-2 IgG2a
# [6] = 40 mg/kg 24 h (16-24 h) and 1 h pre i.v. injection of 10 mg/kg AT-130-2 IgG2a
# [7] = 40 mg/kg 24 h and 1 h pre-injection of anti-CD40 (FGK4.5), 200 μg/mouse i.v.
Structure (SMILES),"effect of anti-histamine premedication alone on IRRs / macroscopic symptoms ([1]; pre i.v. injection of 10 mg/kg AT-130-2 IgG2a, 10 mg/kg)","effect of adding anti-histamine to two doses of corticosteroid ([1]; with 40 mg/kg Betamethasone (24 hours and 1 hour) pre i.v. 10 mg/kg AT-130-2 IgG2a, macroscopic symptoms and platelet counts)",effect of anti-histamine premedication alone on platelet decrease ([2]; pre i.v. injection of 10 mg/kg AT-130-2 IgG2a),effect of premedication on transaminases increase [3],"effect of premedication on IRRs / macroscopic symptoms [1, 5]","effect of premedication on IRRs / macroscopic symptoms ([1]; 10 mg/kg 24 h and 1 h pre i.v. injection of 10 mg/kg AT-130-2 IgG2a, listed as betapred)","effect of premedication on IRRs / macroscopic symptoms [1, 6]","effect of premedication on IRRs / macroscopic symptoms ([1]; 40 mg/kg 24 h (16-24 h) and 1 h pre i.v. injection of 10 mg/kg AT-130-2 IgG2a, listed as betapred)","effect of premedication on IRRs after anti-CD40 [1, 7]",effect of single premedication on IRRs / macroscopic symptoms ([1]; 40 mg/kg only 1 hour (30-60 minutes) before i.v. 10 mg/kg AT-130-2 IgG2a),effect of premedication with two doses of corticosteroids [1],"effect of premedication on platelet decrease [2, 5]","effect of premedication on platelet decrease [2, 6]","effect of premedication on platelet decrease after anti-CD40 [2, 7]",effect of single premedication on platelet decrease ([2]; 40 mg/kg only 1 hour before i.v. 10 mg/kg AT-130-2 IgG2a),"effect of dexamethasone premedication compared with betamethasone ([1]; pre injection of AT-130-2, data not shown)",effect of two doses of dexamethasone in subjects receiving BI-1206 [4]
CNC(=C[N+](=O)[O-])NCCSCc1ccc(CN(C)C)o1 [Zantac],The same results were seen; also recorded: did not inhibit IRRs or platelet decrease,the protective effect was retained,did not inhibit IRRs or platelet decrease,–,–,–,–,–,–,–,–,–,–,–,–,–,–
C[C@H]1C[C@H]2[C@@H]3CCC4=CC(=O)C=C[C@]4(C)[C@@]3(F)[C@@H](O)C[C@]2(C)[C@@]1(O)C(=O)CO [betamethasone],–,–,–,reduced the transaminases increase,did not completely inhibited IRRs; also recorded: did not completely inhibited macroscopic symptoms,partly block IRRs,completely inhibited the macroscopic symptoms; also recorded: no IRRs were seen,completely block IRRs,no IRRs were seen,did not inhibited macroscopic symptoms,inhibits the macroscopic IRRs as well as platelet decrease and transaminase elevation,did not completely inhibited IRRs or decrease in platelet count; also recorded: did not completely inhibited macroscopic symptoms (FIG. 18A) or decrease in platelet count,"completely inhibited the macroscopic symptoms (FIG. 17A), decrease in platelet count; also recorded: no platelet decrease were seen",no platelet decrease were seen,did not inhibited macroscopic symptoms (FIG. 19A) or platelet decrease,–,–
C[C@@H]1C[C@H]2[C@@H]3CCC4=CC(=O)C=C[C@]4(C)[C@@]3(F)[C@@H](O)C[C@]2(C)[C@@]1(O)C(=O)CO [dexamethasone],–,–,–,–,–,–,–,–,–,–,inhibits the macroscopic IRRs as well as platelet decrease and transaminase elevation,–,–,–,–,The same results were seen; also recorded: The same effect was seen,"relieved IRRs, platelet decrease, and transaminase increase"
